The supplement of paper PMC10849652
This is one part of the list.

Amino acid sequences for entries named in this document (tags omitted). A change or cut given only in a name is not applied to a line headed by its entry.
UniProt Q8NBF6: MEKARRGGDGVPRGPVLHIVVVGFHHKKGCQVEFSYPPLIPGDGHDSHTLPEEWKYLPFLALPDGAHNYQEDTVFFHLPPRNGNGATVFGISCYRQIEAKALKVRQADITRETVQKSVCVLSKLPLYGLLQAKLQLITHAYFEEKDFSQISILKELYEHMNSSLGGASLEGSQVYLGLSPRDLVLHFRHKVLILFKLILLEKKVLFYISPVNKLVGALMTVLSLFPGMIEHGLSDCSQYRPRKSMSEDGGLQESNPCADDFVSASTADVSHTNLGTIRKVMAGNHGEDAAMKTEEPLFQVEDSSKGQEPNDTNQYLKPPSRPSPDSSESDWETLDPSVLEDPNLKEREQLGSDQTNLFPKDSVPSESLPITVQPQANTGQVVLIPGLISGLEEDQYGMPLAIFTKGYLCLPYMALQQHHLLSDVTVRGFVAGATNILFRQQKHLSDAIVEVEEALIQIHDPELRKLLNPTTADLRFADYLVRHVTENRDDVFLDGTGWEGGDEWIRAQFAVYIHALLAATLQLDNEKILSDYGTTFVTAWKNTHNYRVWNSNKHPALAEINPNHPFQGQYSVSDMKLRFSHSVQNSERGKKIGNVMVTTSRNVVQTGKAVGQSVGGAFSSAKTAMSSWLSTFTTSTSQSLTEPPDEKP
UniProt P56385: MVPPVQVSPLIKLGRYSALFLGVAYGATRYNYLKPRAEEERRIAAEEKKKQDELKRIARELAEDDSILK
UniProt P56378: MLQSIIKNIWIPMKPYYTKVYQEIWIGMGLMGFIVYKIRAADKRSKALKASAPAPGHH
UniProt Q2TAZ0: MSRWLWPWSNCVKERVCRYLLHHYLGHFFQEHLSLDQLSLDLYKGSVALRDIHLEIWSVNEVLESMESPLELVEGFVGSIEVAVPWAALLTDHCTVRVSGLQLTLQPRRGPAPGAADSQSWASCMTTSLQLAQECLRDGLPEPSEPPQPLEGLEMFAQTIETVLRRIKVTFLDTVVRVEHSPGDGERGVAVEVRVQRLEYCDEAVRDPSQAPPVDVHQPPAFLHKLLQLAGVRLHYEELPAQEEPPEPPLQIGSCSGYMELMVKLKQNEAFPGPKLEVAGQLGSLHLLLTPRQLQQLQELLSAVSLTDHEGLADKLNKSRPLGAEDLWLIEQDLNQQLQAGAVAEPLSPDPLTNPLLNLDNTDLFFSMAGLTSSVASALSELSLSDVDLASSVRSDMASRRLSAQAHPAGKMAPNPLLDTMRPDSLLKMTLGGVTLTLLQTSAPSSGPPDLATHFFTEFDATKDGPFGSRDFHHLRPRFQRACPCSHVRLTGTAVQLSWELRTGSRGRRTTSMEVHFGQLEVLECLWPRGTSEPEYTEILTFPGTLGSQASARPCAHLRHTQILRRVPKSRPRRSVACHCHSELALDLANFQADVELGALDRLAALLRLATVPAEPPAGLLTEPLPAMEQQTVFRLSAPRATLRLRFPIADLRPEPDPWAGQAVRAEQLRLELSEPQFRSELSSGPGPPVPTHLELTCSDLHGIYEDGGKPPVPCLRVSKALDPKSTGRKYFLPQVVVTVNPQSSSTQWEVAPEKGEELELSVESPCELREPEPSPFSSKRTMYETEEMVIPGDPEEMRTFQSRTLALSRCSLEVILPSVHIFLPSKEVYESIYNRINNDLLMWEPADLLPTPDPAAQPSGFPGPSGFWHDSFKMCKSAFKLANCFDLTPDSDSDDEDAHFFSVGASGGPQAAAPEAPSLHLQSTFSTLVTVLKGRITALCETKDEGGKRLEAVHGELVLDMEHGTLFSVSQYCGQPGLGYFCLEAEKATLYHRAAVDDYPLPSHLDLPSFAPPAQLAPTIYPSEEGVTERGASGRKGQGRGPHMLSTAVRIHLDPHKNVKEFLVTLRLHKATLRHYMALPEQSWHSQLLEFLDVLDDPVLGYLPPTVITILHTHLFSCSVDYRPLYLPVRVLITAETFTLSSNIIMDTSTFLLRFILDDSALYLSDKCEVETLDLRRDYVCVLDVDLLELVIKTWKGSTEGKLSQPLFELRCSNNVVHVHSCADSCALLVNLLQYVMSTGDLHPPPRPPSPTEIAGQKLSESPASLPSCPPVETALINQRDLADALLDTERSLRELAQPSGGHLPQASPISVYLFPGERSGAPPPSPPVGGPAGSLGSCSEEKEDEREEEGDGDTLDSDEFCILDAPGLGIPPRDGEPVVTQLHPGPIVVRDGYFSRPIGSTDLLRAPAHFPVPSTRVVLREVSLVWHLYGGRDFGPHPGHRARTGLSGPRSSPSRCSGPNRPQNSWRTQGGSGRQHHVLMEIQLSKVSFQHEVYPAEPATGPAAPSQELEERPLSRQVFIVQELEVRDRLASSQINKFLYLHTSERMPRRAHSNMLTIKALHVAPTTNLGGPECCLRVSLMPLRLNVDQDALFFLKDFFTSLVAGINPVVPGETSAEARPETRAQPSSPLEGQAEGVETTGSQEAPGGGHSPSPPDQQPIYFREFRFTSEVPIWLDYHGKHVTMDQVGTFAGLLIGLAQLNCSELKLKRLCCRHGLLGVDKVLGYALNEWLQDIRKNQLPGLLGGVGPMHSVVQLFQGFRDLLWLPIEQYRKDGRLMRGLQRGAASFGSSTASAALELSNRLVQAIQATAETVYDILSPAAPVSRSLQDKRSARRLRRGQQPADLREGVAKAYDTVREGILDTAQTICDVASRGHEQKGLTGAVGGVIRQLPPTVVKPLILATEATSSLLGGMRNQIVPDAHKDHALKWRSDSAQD
UniProt P18859: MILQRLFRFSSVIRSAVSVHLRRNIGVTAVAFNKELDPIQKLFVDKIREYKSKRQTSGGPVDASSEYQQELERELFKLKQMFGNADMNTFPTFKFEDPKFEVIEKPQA
UniProt B2RBV5: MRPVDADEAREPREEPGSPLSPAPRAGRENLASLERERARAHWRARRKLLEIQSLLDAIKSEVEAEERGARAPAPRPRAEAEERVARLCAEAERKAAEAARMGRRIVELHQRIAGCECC
UniProt Q8NB49: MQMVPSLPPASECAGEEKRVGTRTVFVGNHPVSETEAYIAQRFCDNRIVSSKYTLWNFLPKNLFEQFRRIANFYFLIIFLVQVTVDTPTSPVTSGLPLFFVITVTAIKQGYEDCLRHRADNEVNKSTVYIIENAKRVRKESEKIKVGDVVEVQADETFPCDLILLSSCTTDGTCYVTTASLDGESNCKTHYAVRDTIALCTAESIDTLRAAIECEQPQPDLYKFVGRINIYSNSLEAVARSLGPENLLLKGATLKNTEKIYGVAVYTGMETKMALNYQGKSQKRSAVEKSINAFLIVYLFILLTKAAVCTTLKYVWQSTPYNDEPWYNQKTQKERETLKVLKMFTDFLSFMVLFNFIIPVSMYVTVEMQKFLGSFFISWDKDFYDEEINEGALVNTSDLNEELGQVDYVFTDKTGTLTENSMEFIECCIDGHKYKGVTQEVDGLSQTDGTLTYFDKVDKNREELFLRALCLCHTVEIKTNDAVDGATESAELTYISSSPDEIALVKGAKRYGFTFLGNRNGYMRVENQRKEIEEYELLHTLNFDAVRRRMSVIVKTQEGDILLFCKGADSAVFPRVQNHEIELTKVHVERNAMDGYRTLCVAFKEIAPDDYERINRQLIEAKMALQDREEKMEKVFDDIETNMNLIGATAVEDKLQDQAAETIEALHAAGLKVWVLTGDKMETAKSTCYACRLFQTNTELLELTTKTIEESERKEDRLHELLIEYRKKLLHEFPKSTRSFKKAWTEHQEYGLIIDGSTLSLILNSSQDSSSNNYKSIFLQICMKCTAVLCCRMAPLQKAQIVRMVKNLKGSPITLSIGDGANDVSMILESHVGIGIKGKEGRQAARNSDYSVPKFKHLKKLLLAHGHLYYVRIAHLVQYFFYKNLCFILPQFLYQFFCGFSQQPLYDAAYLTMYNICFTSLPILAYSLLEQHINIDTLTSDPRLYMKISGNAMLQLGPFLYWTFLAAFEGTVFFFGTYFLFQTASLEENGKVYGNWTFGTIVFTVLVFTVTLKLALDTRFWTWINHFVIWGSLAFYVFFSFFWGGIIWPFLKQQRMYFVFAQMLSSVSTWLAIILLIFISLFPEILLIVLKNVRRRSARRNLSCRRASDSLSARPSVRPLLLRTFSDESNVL
UniProt Q5T9A4: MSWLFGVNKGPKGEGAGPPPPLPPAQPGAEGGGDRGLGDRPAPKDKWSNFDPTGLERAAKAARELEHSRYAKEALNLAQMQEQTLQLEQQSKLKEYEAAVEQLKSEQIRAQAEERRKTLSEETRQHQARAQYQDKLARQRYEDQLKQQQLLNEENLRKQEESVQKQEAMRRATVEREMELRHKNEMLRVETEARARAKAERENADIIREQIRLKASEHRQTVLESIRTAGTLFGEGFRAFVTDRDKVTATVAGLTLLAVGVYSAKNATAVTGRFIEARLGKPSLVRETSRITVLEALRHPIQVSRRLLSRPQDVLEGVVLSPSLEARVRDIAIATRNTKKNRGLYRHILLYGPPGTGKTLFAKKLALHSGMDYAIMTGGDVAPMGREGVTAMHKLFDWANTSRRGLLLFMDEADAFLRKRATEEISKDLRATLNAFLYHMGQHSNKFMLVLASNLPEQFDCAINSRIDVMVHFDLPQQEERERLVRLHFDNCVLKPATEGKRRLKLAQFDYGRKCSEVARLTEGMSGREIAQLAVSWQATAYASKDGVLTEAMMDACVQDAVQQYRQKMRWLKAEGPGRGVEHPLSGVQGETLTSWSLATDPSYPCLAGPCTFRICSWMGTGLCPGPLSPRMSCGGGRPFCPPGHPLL
UniProt P38606, whole entry, looked up: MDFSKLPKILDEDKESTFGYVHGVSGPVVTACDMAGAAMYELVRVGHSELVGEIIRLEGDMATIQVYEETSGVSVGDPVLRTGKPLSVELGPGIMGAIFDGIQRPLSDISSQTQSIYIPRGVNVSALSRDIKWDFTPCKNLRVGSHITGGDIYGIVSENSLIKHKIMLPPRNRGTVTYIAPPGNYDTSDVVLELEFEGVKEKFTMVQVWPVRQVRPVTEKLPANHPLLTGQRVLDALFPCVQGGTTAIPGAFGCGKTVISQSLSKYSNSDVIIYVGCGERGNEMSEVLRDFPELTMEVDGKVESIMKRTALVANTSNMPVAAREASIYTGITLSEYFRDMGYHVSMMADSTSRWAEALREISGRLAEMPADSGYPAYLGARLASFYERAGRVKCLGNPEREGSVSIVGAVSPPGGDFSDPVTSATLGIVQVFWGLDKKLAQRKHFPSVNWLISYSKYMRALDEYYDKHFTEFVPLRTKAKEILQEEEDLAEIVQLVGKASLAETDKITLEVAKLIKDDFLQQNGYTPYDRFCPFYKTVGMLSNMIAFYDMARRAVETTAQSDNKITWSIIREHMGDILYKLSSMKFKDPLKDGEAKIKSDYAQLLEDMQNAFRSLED
UniProt P14415, whole entry, looked up: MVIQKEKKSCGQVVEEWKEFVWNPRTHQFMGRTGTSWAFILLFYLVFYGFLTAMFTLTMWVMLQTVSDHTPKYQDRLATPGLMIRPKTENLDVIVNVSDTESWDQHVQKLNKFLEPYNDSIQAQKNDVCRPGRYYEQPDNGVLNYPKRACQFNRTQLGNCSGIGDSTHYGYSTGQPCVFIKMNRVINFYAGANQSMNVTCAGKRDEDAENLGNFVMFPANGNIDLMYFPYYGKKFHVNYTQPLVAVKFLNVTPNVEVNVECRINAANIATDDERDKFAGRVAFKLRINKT
UniProt Q93050, whole entry, looked up: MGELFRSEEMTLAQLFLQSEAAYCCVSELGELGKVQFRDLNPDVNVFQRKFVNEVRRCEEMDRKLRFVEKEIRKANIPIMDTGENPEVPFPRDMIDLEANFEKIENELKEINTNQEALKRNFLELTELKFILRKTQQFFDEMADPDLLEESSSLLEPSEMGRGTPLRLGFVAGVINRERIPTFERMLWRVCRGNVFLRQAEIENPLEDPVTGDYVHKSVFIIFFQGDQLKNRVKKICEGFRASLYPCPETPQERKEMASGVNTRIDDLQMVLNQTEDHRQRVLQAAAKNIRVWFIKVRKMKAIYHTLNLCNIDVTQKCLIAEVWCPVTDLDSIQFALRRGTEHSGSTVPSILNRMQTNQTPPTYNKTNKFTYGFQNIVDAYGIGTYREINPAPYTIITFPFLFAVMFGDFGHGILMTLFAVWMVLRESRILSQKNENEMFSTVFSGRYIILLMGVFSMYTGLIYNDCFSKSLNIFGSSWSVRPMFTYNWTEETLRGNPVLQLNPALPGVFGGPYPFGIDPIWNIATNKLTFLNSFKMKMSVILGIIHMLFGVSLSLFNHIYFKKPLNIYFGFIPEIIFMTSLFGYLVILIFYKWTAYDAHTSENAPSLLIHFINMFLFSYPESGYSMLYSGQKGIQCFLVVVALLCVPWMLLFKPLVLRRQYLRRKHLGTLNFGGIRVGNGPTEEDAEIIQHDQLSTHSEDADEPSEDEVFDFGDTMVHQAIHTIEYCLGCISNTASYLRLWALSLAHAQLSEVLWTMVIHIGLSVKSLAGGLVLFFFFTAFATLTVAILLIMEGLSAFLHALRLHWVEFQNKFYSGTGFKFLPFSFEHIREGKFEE

The targets below were run with Cc1ncc(-c2ccnc(Nc3ccc(S(C)(=O)=O)cc3)n2)n1C(C)C (assay: log2 fold change, soluble protein after heating vs DMSO (PISA); higher = thermal stabilisation; K562 lysate, 10 uM; active = over 0.2 and 3.5 SD of the protein, either way, in both replicates (recomputed)).
Outline: (§1)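 Thermal stability, expressed as log-two fold change relative to solvent controls, is given from duplicates. Crude K562 extract in PBS pH 7.4 with 1 mM MgCl2, at 1 mg/mL protein, was treated with 10 μM compound for 30 min and heated in aliquots for 3 min across 48°C-58°C. After pooling, adjustment to 0.5% NP-40 at 4°C and centrifugation at 21,000xg for 90 min, supernatant protein was measured by TMTpro 16plex LC-MS/MS with channel sums equalised.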

log2 fold change, inactive:
ATP5F1B (UniProt H0YI37) 0.168
AVL9 (UniProt Q8NBF6) -0.016
ATF7IP2 (UniProt Q5U623) -0.089
ATP5ME (UniProt P56385) 0.026
ATP5MPL (UniProt P56378) 0.122
ATG2A (UniProt Q2TAZ0) 0.1
ATP5PF isoform 2 (UniProt P18859) 0.164
ATM (UniProt Q13315) 0.084
ATP13A1 (UniProt Q9HD20) 0.003
ATP5F1B (UniProt F8W079) -0.245
ATP1B1 (UniProt P05026) 0.043
B4GALNT1 (UniProt Q00973) -0.175
ATXN7L3 isoform 2 (UniProt Q14CW9) 0.054
NA (UniProt B2RBV5) -0.356
ATG16L1 (UniProt Q676U5) 0.016
ATE1 isoform 2 (UniProt O95260) -0.032
AURKA (UniProt O14965) 0.174
ATP1A1 (UniProt P05023) -0.001
ATP11C (UniProt Q8NB49) 0.023
ATAD3B (UniProt Q5T9A4) -0.026
ATP6V1A (UniProt P38606) 0.004
ATP6AP1 (UniProt Q15904) -0.067

The targets below were run with Cn1cc(-c2ccc3c(c2)CCN3C(=O)Cc2cccc(C(F)(F)F)c2)c2c(N)ncnc21 in the same assay as above.
Outline: as §1

log2 fold change, inactive:
ATP5F1B (UniProt H0YI37) -0.18
AVL9 (UniProt Q8NBF6) -0.037
ATP5ME (UniProt P56385) -0.01
ATP11C, A0A067XG54 0.096
ATP5MPL (UniProt P56378) 0.072
ATP5PF isoform 2 (UniProt P18859) -0.013
ATM (UniProt Q13315) 0.038
ATP13A1 (UniProt Q9HD20) 0.005
B3GNT5 (UniProt Q9BYG0) 0.003
ATRN (UniProt O75882) 0.066
ATP1B1 (UniProt P05026) 0.005
B4GALNT1 (UniProt Q00973) 0.018
ATP1B2 (UniProt P14415) 0.011
ATXN7L3 isoform 2 (UniProt Q14CW9) 0.017
AUH (UniProt Q13825) 0.14
ATG16L1 (UniProt Q676U5) -0.013
ATE1 isoform 2 (UniProt O95260) 0.017
ASXL2 (UniProt Q76L83) -0.098
AURKA (UniProt O14965) 0.027
ATXN2 (UniProt F8WB05) -0.058
ATP6V0A1 (UniProt Q93050) 0.036
ATP1A1 (UniProt P05023) 0.009
ATP11C (UniProt Q8NB49) -0.006
ATP6V0C (UniProt P27449) -0.009
ATAD3B (UniProt Q5T9A4) 0.046
ATP6V1A (UniProt P38606) -0.018
ATP6AP1 (UniProt Q15904) -0.031
